In PubChem BioAssay AID248 (DTP/NCI, 2004):
The list shows only some results of the screen, not a fair sample: it gathers tests that were run many times, whatever their T/C, doses with no T/C, and many T/C values between a quarter and a half above the control. Further doses and runs are listed elsewhere. T/C: endpoint of the treated group in % of that of the vehicle group. Some entries give survivors of the animals treated and no T/C: the source holds a T/C of zero for them, seemingly a mark for toxic or unscored doses. Some doses without a T/C left all or most animals alive at the check, yet need not have been tolerated: survival well below the control is almost never listed, so the zero probably covers shortened survival too. Counts of survivors are from the toxicity check (mostly the fifth day) where no day follows; animals may have died later. Schedule codes are those of the source, read here as Q, the interval in days (D) or hours (H), X, the number of doses. Where survival is the endpoint, the PubChem record calls one and a half times the control and up active, and a quarter to a half above the control has no call in these data; cut-offs in other NCI protocols can differ. Some T/C values carry the count of animals alive at the toxicity check (mostly the fifth day); where none is given, no animal had died by that day. Some doses were run more than once; the results are listed from low to high. Brackets with × give the number of equal values in this list.

Test system: L1210 leukemia ip in BDF1 mice, survival T/C
Test: NCI In Vivo Anticancer Drug Screen. Data for tumor model L1210 Leukemia (intraperitoneal) in B6D2F1 (BDF1) mice
Settings: T/C endpoint: mean survival time, higher T/C = longer survival
[1] = dose: 400.0 mg/kg/injection, schedule: Q04DX003 (ip), vehicle: saline

In the case of CC(CN1CC(=O)NC(=O)C1)N1CC(=O)NC(=O)C1 (stereo unspecified), the T/C (dose: 200.0 mg/kg/injection, schedule: Q04DX003 (ip), vehicle: saline with Tween-80, evaluated on day 20) is reported as 117 % of control, the T/C (dose: 200.0 mg/kg/injection, schedule: Q04DX003 (ip), vehicle: saline with Tween-80, evaluated on day 30) is reported as 138 % of control and the T/C (dose: 200.0 mg/kg/injection, schedule: Q04DX003 (ip), vehicle: saline with Tween-80, evaluated on day 60) is reported as 117 and 120 % of control. For the same compound, the T/C (dose: 200.0 mg/kg/injection, schedule: Q04DX003 (ip), vehicle: saline, evaluated on day 30) was 94, 135 [5 of 6 alive], 137, 140, 142, 165 % of control, the T/C (dose: 200.0 mg/kg/injection, schedule: Q04DX003 (ip), vehicle: saline, evaluated on day 60) was 210 % of control and the T/C (dose: 200.0 mg/kg/injection, schedule: Q04DX003 (ip), vehicle: water, evaluated on day 5) was 236, 239, 282 % of control. The T/C (dose: 200.0 mg/kg/injection, schedule: Q04DX003 (ip), vehicle: water, evaluated on day 30) was 152 % of control, the T/C (dose: 200.0 mg/kg/injection, schedule: Q04DX003 (ip), vehicle: water, evaluated on day 60) was 282 and 365 % of control and the T/C (dose: 200.0 mg/kg/injection, schedule: Q04DX003 (iv), vehicle: water) was 135, 142, 149 % of control. The T/C (dose: 200.0 mg/kg/injection, schedule: Q08DX002 (oral), vehicle: steroid suspending solution) was 146 % of control, the T/C (dose: 268.0 mg/kg/injection, schedule: Q01DX001 (ip), vehicle: saline) was 126 % of control and the T/C (dose: 400.0 mg/kg/injection, schedule: Q01DX001 (ip), vehicle: saline, evaluated on day 5) was 143 % of control. The T/C (dose: 400.0 mg/kg/injection, schedule: Q01DX001 (ip), vehicle: saline, evaluated on day 60) was 143 and 148 % of control, the T/C (dose: 400.0 mg/kg/injection, schedule: Q01DX001 (ip), vehicle: steroid suspending solution) was 130 % of control [7 of 8 alive] and the T/C (dose: 400.0 mg/kg/injection, schedule: Q04DX003 (ip), vehicle: Klucel (hydroxypropylcellulose) (HPC), evaluated on day 5) was 109, 114, 195 % of control. The T/C (dose: 400.0 mg/kg/injection, schedule: Q04DX003 (ip), vehicle: Klucel (hydroxypropylcellulose) (HPC), evaluated on day 30) was 116 [5 of 6 alive], 138, 143, 170, 175 % of control, the T/C (dose: 400.0 mg/kg/injection, schedule: Q04DX003 (ip), vehicle: Klucel (hydroxypropylcellulose) (HPC), evaluated on day 60) was 114 (2×), 158, 160, 193 % of control and the T/C (dose: 400.0 mg/kg/injection, schedule: Q04DX003 (ip), vehicle: saline with Tween-80, evaluated on day 20) was 162 % of control. The T/C (dose: 400.0 mg/kg/injection, schedule: Q04DX003 (ip), vehicle: saline with Tween-80, evaluated on day 30) was 182 % of control, the T/C (dose: 400.0 mg/kg/injection, schedule: Q04DX003 (ip), vehicle: saline with Tween-80, evaluated on day 60) was 134 and 136 % of control and the T/C [1] was 125, 133, 161, 174, 182, 197 % of control. The survivor count [1] was 10 of 10, the T/C (dose: 400.0 mg/kg/injection, schedule: Q04DX003 (ip), vehicle: steroid suspending solution) was 129 % of control and the T/C (dose: 400.0 mg/kg/injection, schedule: Q04DX003 (ip), vehicle: water, evaluated on day 5) was 101, 102, 105 % of control. For the same compound, the T/C (dose: 400.0 mg/kg/injection, schedule: Q04DX003 (ip), vehicle: water, evaluated on day 30) was 171 % of control, the T/C (dose: 400.0 mg/kg/injection, schedule: Q04DX003 (ip), vehicle: water, evaluated on day 60) was 105 and 164 % of control and the T/C (dose: 400.0 mg/kg/injection, schedule: Q04DX003 (iv), vehicle: water) was 138 % of control [9 of 10 alive]. For the same compound, the T/C (dose: 400.0 mg/kg/injection, schedule: Q04DX003 (oral), vehicle: steroid suspending solution) was 146 % of control, the T/C (dose: 400.0 mg/kg/injection, schedule: Q08DX002 (oral), vehicle: steroid suspending solution) was 148 % of control and the T/C (dose: 512.0 mg/kg/injection, schedule: Q04DX003 (oral), vehicle: saline with Tween-80) was 132 % of control. The T/C (dose: 800.0 mg/kg/injection, schedule: Q01DX001 (ip), vehicle: steroid suspending solution) was 133 % of control.
